Assay results published in publication PMC12624773, “Receptor activity–modifying protein 3 enhances GLP-1-mediated insulin secretion” (The Journal of Biological Chemistry, 2025).
No constants are given. Whether binding was seen depends on the method and setting. Binding seen in cells or lysates may run through a third protein. Some results given as binding are weak or reduced against the parent protein; the word gives no strength.

Protein sequences, listed by entry. Tags and fused reporters are not part of them. Residues count along the entry.
UniProt Q16602, residues 23-461: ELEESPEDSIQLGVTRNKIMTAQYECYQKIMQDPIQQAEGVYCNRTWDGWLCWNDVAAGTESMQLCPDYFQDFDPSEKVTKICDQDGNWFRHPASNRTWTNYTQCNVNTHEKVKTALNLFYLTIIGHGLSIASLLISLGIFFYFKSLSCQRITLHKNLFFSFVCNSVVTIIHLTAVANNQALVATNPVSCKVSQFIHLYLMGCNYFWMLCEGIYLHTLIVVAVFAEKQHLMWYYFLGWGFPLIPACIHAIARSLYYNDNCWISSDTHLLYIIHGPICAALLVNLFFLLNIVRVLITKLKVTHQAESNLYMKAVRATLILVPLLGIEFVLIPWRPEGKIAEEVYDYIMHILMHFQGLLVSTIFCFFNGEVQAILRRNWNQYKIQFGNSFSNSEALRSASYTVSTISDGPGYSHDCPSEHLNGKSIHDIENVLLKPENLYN
UniProt P49407: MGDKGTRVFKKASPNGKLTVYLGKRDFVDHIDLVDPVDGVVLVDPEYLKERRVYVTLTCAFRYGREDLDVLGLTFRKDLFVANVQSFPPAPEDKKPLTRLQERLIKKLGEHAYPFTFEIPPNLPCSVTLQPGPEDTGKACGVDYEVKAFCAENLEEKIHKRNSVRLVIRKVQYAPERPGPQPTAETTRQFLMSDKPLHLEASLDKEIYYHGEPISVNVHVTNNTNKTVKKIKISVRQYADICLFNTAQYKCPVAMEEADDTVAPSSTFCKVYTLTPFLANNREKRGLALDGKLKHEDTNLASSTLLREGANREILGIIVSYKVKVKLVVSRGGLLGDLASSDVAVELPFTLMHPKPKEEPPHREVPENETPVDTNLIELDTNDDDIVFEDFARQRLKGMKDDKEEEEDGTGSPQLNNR
UniProt P32121: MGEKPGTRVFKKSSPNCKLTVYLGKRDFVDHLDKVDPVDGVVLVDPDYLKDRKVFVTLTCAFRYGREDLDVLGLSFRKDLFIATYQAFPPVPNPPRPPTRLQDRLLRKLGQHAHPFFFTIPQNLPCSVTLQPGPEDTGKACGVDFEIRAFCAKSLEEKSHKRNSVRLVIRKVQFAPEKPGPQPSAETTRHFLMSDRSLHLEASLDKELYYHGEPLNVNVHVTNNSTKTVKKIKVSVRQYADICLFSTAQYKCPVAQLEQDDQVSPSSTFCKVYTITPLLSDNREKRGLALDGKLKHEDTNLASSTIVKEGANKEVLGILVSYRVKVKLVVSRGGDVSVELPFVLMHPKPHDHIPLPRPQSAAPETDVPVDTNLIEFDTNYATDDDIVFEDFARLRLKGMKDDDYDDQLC

T1: LgBiT-GLP-1R (human), P43220
T1 chain: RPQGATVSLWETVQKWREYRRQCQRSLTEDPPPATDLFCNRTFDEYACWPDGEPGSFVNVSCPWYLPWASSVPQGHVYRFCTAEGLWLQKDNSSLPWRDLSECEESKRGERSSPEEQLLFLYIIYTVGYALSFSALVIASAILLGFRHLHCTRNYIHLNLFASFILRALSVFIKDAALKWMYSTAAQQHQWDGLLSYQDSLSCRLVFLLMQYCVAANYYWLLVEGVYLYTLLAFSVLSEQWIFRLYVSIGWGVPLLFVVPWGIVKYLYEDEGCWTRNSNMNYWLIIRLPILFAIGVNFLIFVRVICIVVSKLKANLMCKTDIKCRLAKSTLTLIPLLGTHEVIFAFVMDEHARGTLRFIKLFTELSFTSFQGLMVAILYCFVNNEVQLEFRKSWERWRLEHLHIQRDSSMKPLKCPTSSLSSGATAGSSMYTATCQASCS


What was measured:
GLP-1R–Nluc (human) [1] = target: GLP-1R–Nluc (human) (UniProt P43220); assay: FRET or BRET; recruitment of β-arrestin1/2–YFP to GLP-1R–Nluc in INS-1 832/3 cells without endogenous GLP-1R, with vector or RAMP3; KREBs-Ringer with 0.1% BSA, pH 7.4
GLP-1R–Nluc (human) [2] = target: GLP-1R–Nluc (human) (UniProt P43220); assay: FRET or BRET; agonist-stimulated recruitment of β-arrestin–YFP to GLP-1R–Nluc in HEK293T cells, with pcDNA3.1 or FLAG-RAMP3 (1:5:2 ratio); KREBs with 0.1% BSA; read 1 h
Nluc–CLR = Nluc–CLR (UniProt Q16602); assay: FRET or BRET; cell-surface NanoBRET in Cos7 cells: 50 ng Nluc-GPCR and increasing amounts of SNAP-RAMP, SNAP-RAMP labelled with cell-impermeable SNAP-Surface Alexa Fluor 488; KREBs with 0.1% BSA; ratio at 10 min
Nluc–GLP-1R = Nluc–GLP-1R (Homo sapiens, UniProt P43220); assay: as above
LgBiT-GLP-1R (human) = LgBiT-GLP-1R (human) (UniProt P43220); assay: split reporter + FRET or BRET; LgBiT-GLP-1R and SmBiT-RAMP coexpressed in HEK293T cells; the complex is read by BRET from the complemented NanoBiT luciferase to bound Ex-4-Red
[3] = target: T1, LgBiT-GLP-1R (human), P43220; assay: as above; conditions: remark: other sources report otherwise

Molecule	binding (GLP-1R–Nluc (human) [1])	binding (GLP-1R–Nluc (human) [2])	binding [3]	also measured
SNAP-RAMP3 (protein, UniProt O60896 24-148, SNAP-Surface Alexa Fluor 488 conjugated to the SNAP tag) RAGGCNETGMLERLPLCGKAFADMMGKVDVWKWCNLSEFIVYYESFTNCTEMEANVVGCYWPNPLAQGFITGIHRQFFSNCTVDRVHLEDPPDEVLIPLIVIPVVLTVAMAGLVVWRSKRTDTLL				binding (Nluc–CLR): binds; binding (Nluc–GLP-1R): binds
SmBiT-RAMP3 (protein, UniProt O60896 24-148) RAGGCNETGMLERLPLCGKAFADMMGKVDVWKWCNLSEFIVYYESFTNCTEMEANVVGCYWPNPLAQGFITGIHRQFFSNCTVDRVHLEDPPDEVLIPLIVIPVVLTVAMAGLVVWRSKRTDTLL				binding (LgBiT-GLP-1R (human)): binds
SmBiT-RAMP1, O60894 27-148 (protein) CQEANYGALLRELCLTQFQVDMEAVGETLWCDWGRTIRSYRELADCTWHMAEKLGCFWPNAEVDRFFLAVHGRYFRSCPISGRAVRDPPGSILYPFIVVPITVTLLVTALVVWQSKRTEGIV			no binding	
SmBiT-RAMP2, O60895 43-175 (protein) QPLPTTGTPGSEGGTVKNYETAVQFCWNHYKDQMDPIEKDWCDWAMISRPYSTLRDCLEHFAELFDLGFPNPLAERIIFETHQIHFANCSLVQPTFSDPPEDVLLAMIIAPICLIPFLITLVVWRSKDSEAQA			no binding	

Now from value to molecule, other results behind:

binding (GLP-1R–Nluc (human) [1])	binding (GLP-1R–Nluc (human) [2])	binding [3]	Molecule	also measured
binds	binds		β-arrestin1–YFP (from UniProt P49407 1-418)	
binds	binds		β-arrestin2–YFP (from UniProt P32121 1-409)	
